Measurements published in the supplement of paper PMC5949888.
Most values lie at the floor of the assay. Slopes are relative: functional sequences can read slightly below zero.

The substances below were run on Saccharomyces cerevisiae PS128 hsf1 delta, HSF1(1-493) fusion (assay: growth estimate (transactivation domain function in HSF1 fusion, heat-shock survival) (a.u. (slope of normalised read count over time)); higher = stronger growth at 37°C, i.e. more transactivation activity). Conditions: library: random library.
Substance GRGRHEPTVMPRAVAGLCHP has a growth estimate of less than -0.25.
Substance PRKTGSTNHKREMSGRATSR has a growth estimate of less than -0.25.
Work on SQVHVENHGAPEVLWSLLTA yielded a growth estimate of less than -0.25.
In the case of AESRSG, the growth estimate is reported as less than -0.25.
VGNLRCVQLNAIIG showed a growth estimate of less than -0.25.
Substance SGGPFSFQSMTRTGLRRRRS has a growth estimate of less than -0.25.
FSGR was tested, and the growth estimate was less than -0.25.
SNSSLQLNGIPMSDGSSL was tested, and the growth estimate was less than -0.25.
LGRDYCR gave a growth estimate of less than -0.25.
AGRTCVGVRQDAQGSRVVAW was tested, and the growth estimate was less than -0.25.
RGRTFSPR showed a growth estimate of less than -0.25.
For PRLPRNHQDRHSRGQLREAR, the growth estimate was -0.243.
CRGISRIARRQSTSTAYWVR showed a growth estimate of less than -0.25.
For YTGSTIVFLFEVLLPGPLEY, the growth estimate was less than -0.25.
In the case of GNPPVEEKLITII, the growth estimate is reported as less than -0.25.
For KTEIENMYLWIRFRMGSG, the growth estimate was less than -0.25.
With VSQTLSVVRHPPTIGSPRKI the growth estimate was less than -0.25.
For NSSPLVGGHMLPLTNSKPIM, the growth estimate was less than -0.25.
TSGLGTCINKVPNGAFLPAC gave a growth estimate of less than -0.25.
SEAGFPVCGTGYASV showed a growth estimate of less than -0.25.
For YAFCVRSCRGTCLKFFRTAA, the growth estimate was less than -0.25.
For REGIRDNTNAMMMWTLW, the growth estimate was 0.111.
For TVAA, the growth estimate was less than -0.25.
Substance QGAGRGLASSWEAECLAVSR has a growth estimate of less than -0.25.
Substance RNLYERLIMSRFRHRHLTPG has a growth estimate of less than -0.25.
GEASLPPRRRPRRSTSGRLG gave a growth estimate of less than -0.25.
For RWLQSFDKLFNGSSILRARR, the growth estimate was less than -0.25.
VIGTNGRALRLGTCFDGTIM gave a growth estimate of less than -0.25.
With GRTVTARQSR the growth estimate was less than -0.25.
Work on FGSGSTTASCSNIWALTSQG yielded a growth estimate of less than -0.25.
GRIMAVRV showed a growth estimate of less than -0.25.
Work on GNSMAVPIWFGWLERSEIS yielded a growth estimate of -0.217.
VERSRG showed a growth estimate of less than -0.25.
Substance SVE has a growth estimate of less than -0.25.
In the case of SGDPEVSLITYMSTASMSRA, the growth estimate is reported as less than -0.25.
FTTGRTLAHCGIALWPHYAY gave a growth estimate of less than -0.25.
LWSETRMDVREETVFGKLRS gave a growth estimate of less than -0.25.
For SQTRGQDRSRINDESAEGYG, the growth estimate was less than -0.25.
GRLFMPTGTRASPLVRRDRQ was tested, and the growth estimate was less than -0.25.
For ERRFSFVALSRSRLGRRGNP, the growth estimate was less than -0.25.
With FSARQ the growth estimate was less than -0.25.
CEGPRKYASLSEGGKCYWEQ was tested, and the growth estimate was less than -0.25.
CSPRPCSMCPSQRLITI showed a growth estimate of less than -0.25.
Substance TRGCGLRSNLCTFPD has a growth estimate of less than -0.25.
Substance IKGPPRDSRCDCTNSEASGS has a growth estimate of -0.228.
With PSDWEYLGSLSSS the growth estimate was less than -0.25.
LQPVSGAITGREMTVMRVGC showed a growth estimate of less than -0.25.
VIRKDGSGSWVSVGVLWVDH showed a growth estimate of less than -0.25.
In the case of WWVYNSGCRRFSCMHLGPN, the growth estimate is reported as less than -0.25.
With HCCTNSATQYTESERSKLP the growth estimate was less than -0.25.
YGINSPEGNIYFFWSFRA was tested, and the growth estimate was -0.231.
Substance RIDVPCRFLTTMDGFNHSW has a growth estimate of less than -0.25.
Substance NGYS has a growth estimate of less than -0.25.
Work on SSNTG yielded a growth estimate of 0.106.
TLLYTEYQLVPRPKGLVTCA gave a growth estimate of less than -0.25.
KQPAIGDIRTSTIQCTHVPS was tested, and the growth estimate was less than -0.25.
HVLLNDGEVQVIFERAFRVV showed a growth estimate of less than -0.25.
ESRGTRSWRLH gave a growth estimate of less than -0.25.
Substance NIFHAAGGTQPKGYPWVRGG has a growth estimate of less than -0.25.
DHL showed a growth estimate of less than -0.25.
Substance VGNSYVDVNLPHHHTVRLVI has a growth estimate of less than -0.25.
Substance LDSQNCRTGLIRGLPATGIA has a growth estimate of less than -0.25.
Substance LCQKHAIQRGLR has a growth estimate of less than -0.25.
VGSTSGPS was tested, and the growth estimate was less than -0.25.
AHDGGCLVARS gave a growth estimate of less than -0.25.
With RSHLKSTYS the growth estimate was less than -0.25.
Substance MGPGARMEMSRSQNLSLSRG has a growth estimate of less than -0.25.
YNLT gave a growth estimate of less than -0.25.
For SMKFVGVFITLLHSARRGVS, the growth estimate was less than -0.25.
YSVVVISLSRDCAPPPGA was tested, and the growth estimate was less than -0.25.
LQFECDM gave a growth estimate of less than -0.25.
For TTR, the growth estimate was less than -0.25.
With TGDSDPSGEKLTDRGRIALF the growth estimate was less than -0.25.
EIR gave a growth estimate of less than -0.25.
Substance LIRVKSGAASRPGRNICSG has a growth estimate of less than -0.25.
DFDEGSLA showed a growth estimate of less than -0.25.
In the case of SILRASKEPLGIVHLGSRGL, the growth estimate is reported as less than -0.25.
Work on GGGSGAA yielded a growth estimate of less than -0.253.
Substance RPT has a growth estimate of less than -0.25.
Substance RFSGLWCSPR has a growth estimate of less than -0.25.
Substance ASFGLLVREGVQHNDPGYGA has a growth estimate of less than -0.25.
NAGLRFTLLIILESGQVDCG was tested, and the growth estimate was less than -0.25.
In the case of LPINLCGSLSYQKPDEVISS, the growth estimate is reported as less than -0.25.
VSSQPCFPAR showed a growth estimate of less than -0.25.
Substance DRNAGEKARVSSLLARGSAL has a growth estimate of less than -0.25.
IFTRIDFSS was tested, and the growth estimate was less than -0.25.
KDKGRRRPLRTWGKVGNLHW showed a growth estimate of less than -0.25.
ESSTGRGLTRPIRDFFGSIP was tested, and the growth estimate was less than -0.25.
Work on VVNKRRG yielded a growth estimate of less than -0.25.
Substance GATYTF has a growth estimate of less than -0.25.
NFYLLHKKSDGAGFWRGGSH was tested, and the growth estimate was less than -0.25.
GDVRFIRRTRGPPRL was tested, and the growth estimate was less than -0.25.
HRCYSKLSRFAVSNT showed a growth estimate of less than -0.25.
In the case of SEMRSDRGILWLRCLHQRNG, the growth estimate is reported as less than -0.25.
With PSGQLLARRHTLAPWTDARK the growth estimate was less than -0.25.
In the case of LDTLLGAGLQGSGM, the growth estimate is reported as less than -0.25.
For RDNVR, the growth estimate was less than -0.25.
With VCAFVEDGSYDLVVRPQTKY the growth estimate was less than -0.25.
Substance YSSGPGRPRRIGGYYGIRIK has a growth estimate of less than -0.25.
For RRTAL, the growth estimate was less than -0.25.
With DAGYQFDRSVVPCMGKSRRL the growth estimate was less than -0.25.
For GRFGVHKDGRFFGY, the growth estimate was less than -0.25.
Substance GIDLVILLMVSLT has a growth estimate of less than -0.25.
In the case of KQTRRIEGF, the growth estimate is reported as less than -0.25.
For RYGVCFRSFRCGIRMNRVAL, the growth estimate was -0.231.
For SITLLPTLGGDVKEPGVERV, the growth estimate was less than -0.25.
Work on CRVKGIIAARKESLSRLTMT yielded a growth estimate of less than -0.25.
In the case of VGINRPGSLTERHYR, the growth estimate is reported as less than -0.25.
GNPHALF showed a growth estimate of less than -0.25.
Substance NRTWQL has a growth estimate of -0.241.
Substance ICVG has a growth estimate of less than -0.25.
In the case of PKSGVS, the growth estimate is reported as less than -0.25.
In the case of TFKNPMANRTKGLLVRCTG, the growth estimate is reported as less than -0.25.
VVHCNQPSLASLKIRPTLRT showed a growth estimate of less than -0.25.
Substance FHPQVTSLSLTLRSISIPLY has a growth estimate of less than -0.25.
With VNTSSRALNIAIFRSDHGGP the growth estimate was less than -0.25.
In the case of LGGKIGECKVVRTLSHSSEA, the growth estimate is reported as less than -0.25.
Work on ENEYTRSDHTSSEPGLPGLC yielded a growth estimate of less than -0.25.
Substance TGTRGNRFP has a growth estimate of less than -0.25.
Substance SERSRPQEA has a growth estimate of less than -0.25.
With RSCREKLMFGDPHPSANSMN the growth estimate was less than -0.25.
Substance RNSFAARSQYG has a growth estimate of less than -0.25.
With LHLRRTYIAASMRFMGRCHL the growth estimate was less than -0.25.
Substance TELTASISSGRILQVSGSTW has a growth estimate of less than -0.25.
NRSRVICKRTPI was tested, and the growth estimate was less than -0.25.
Work on VAGPQ yielded a growth estimate of less than -0.25.
With MEIKRSPD the growth estimate was less than -0.25.
Substance INLPSLEVAIA has a growth estimate of less than -0.25.
For GDGIYSLWRHADEPPWSFHG, the growth estimate was less than -0.25.
Substance AQP has a growth estimate of less than -0.25.
In the case of GLTPNRFYWEIAAGLLGYQH, the growth estimate is reported as less than -0.25.
Work on EGQT yielded a growth estimate of less than -0.25.
GPGIRSYRNLAGGYLVCLHP was tested, and the growth estimate was less than -0.25.
With YCVPPLLVRMC the growth estimate was less than -0.25.
KRGLVVTSGQFNQ showed a growth estimate of less than -0.25.
Work on RLWTVRLVRCG yielded a growth estimate of less than -0.25.
In the case of MSSTYDSTK, the growth estimate is reported as less than -0.25.
FVNFGDLFSISKLGSLCQRV showed a growth estimate of less than -0.25.
In the case of FAAQR, the growth estimate is reported as less than -0.25.
For AGVIGSPDRQCFYRLEPLHR, the growth estimate was less than -0.25.
IAPLTLLGNAEPVCVHSLIP showed a growth estimate of less than -0.25.
RSKRSQSAHRPQCLLRQHRQ gave a growth estimate of less than -0.25.
With LTSGSPPELKSSFSGLLVFR the growth estimate was less than -0.25.
Work on GEFSDW yielded a growth estimate of less than -0.25.
